Here are results for one molecule from patent US20070027086A1.

Protein sequences, listed by entry. Tags and fused reporters are not part of them.
UniProt Q01726: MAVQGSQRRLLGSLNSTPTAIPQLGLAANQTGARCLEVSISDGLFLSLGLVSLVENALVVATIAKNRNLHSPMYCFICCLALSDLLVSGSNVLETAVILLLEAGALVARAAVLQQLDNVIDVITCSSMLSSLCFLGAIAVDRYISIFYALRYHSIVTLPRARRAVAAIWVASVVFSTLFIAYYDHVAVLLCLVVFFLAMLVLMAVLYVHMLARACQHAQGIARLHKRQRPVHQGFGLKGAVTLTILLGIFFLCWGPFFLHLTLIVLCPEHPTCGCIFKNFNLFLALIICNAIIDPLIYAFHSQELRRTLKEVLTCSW

These are yes or no findings as the source states them, for the method shown. Some entries that bind do so weakly or less than the wild type. Sequences can lack the tags named with a protein.

In this assay the target is human MC1-receptor (melanocortin 1 receptor) (human) (UniProt Q01726). Description: competition with [^125I]NDP-MSH on COS-1 cells expressing human MC1 receptor.

Take SSIISHFRWGKPV (D-phenylalanine at 7 (dPhe); C-terminal amide (Val-NH2)) [MS09 (Ser-Ser-Ile-Ile-Ser-His-dPhe-Arg-Trp-Gly-Lys-Pro-Val-NH2)]: the binding entry is “binds”.
